From paper PMC12594857
Results are given in words; binding and its absence hold for the method and conditions named. In cells and extracts the contact can be indirect. Here binding means that the protein was enriched with, or labelled near, the bait; the list need not be complete.

By UniProt entry, the sequences of proteins in these tests, tags left out.
UniProt O14965: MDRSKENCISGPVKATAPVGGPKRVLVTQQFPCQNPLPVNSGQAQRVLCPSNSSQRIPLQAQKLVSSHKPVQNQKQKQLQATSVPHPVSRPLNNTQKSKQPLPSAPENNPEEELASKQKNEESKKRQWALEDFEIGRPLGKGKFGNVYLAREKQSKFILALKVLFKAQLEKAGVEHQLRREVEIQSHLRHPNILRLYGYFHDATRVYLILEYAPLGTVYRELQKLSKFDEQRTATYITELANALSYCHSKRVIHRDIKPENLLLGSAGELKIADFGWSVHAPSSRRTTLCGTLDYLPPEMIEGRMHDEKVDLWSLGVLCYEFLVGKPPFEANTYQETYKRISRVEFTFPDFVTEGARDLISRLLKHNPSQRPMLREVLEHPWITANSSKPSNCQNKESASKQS
UniProt P46013: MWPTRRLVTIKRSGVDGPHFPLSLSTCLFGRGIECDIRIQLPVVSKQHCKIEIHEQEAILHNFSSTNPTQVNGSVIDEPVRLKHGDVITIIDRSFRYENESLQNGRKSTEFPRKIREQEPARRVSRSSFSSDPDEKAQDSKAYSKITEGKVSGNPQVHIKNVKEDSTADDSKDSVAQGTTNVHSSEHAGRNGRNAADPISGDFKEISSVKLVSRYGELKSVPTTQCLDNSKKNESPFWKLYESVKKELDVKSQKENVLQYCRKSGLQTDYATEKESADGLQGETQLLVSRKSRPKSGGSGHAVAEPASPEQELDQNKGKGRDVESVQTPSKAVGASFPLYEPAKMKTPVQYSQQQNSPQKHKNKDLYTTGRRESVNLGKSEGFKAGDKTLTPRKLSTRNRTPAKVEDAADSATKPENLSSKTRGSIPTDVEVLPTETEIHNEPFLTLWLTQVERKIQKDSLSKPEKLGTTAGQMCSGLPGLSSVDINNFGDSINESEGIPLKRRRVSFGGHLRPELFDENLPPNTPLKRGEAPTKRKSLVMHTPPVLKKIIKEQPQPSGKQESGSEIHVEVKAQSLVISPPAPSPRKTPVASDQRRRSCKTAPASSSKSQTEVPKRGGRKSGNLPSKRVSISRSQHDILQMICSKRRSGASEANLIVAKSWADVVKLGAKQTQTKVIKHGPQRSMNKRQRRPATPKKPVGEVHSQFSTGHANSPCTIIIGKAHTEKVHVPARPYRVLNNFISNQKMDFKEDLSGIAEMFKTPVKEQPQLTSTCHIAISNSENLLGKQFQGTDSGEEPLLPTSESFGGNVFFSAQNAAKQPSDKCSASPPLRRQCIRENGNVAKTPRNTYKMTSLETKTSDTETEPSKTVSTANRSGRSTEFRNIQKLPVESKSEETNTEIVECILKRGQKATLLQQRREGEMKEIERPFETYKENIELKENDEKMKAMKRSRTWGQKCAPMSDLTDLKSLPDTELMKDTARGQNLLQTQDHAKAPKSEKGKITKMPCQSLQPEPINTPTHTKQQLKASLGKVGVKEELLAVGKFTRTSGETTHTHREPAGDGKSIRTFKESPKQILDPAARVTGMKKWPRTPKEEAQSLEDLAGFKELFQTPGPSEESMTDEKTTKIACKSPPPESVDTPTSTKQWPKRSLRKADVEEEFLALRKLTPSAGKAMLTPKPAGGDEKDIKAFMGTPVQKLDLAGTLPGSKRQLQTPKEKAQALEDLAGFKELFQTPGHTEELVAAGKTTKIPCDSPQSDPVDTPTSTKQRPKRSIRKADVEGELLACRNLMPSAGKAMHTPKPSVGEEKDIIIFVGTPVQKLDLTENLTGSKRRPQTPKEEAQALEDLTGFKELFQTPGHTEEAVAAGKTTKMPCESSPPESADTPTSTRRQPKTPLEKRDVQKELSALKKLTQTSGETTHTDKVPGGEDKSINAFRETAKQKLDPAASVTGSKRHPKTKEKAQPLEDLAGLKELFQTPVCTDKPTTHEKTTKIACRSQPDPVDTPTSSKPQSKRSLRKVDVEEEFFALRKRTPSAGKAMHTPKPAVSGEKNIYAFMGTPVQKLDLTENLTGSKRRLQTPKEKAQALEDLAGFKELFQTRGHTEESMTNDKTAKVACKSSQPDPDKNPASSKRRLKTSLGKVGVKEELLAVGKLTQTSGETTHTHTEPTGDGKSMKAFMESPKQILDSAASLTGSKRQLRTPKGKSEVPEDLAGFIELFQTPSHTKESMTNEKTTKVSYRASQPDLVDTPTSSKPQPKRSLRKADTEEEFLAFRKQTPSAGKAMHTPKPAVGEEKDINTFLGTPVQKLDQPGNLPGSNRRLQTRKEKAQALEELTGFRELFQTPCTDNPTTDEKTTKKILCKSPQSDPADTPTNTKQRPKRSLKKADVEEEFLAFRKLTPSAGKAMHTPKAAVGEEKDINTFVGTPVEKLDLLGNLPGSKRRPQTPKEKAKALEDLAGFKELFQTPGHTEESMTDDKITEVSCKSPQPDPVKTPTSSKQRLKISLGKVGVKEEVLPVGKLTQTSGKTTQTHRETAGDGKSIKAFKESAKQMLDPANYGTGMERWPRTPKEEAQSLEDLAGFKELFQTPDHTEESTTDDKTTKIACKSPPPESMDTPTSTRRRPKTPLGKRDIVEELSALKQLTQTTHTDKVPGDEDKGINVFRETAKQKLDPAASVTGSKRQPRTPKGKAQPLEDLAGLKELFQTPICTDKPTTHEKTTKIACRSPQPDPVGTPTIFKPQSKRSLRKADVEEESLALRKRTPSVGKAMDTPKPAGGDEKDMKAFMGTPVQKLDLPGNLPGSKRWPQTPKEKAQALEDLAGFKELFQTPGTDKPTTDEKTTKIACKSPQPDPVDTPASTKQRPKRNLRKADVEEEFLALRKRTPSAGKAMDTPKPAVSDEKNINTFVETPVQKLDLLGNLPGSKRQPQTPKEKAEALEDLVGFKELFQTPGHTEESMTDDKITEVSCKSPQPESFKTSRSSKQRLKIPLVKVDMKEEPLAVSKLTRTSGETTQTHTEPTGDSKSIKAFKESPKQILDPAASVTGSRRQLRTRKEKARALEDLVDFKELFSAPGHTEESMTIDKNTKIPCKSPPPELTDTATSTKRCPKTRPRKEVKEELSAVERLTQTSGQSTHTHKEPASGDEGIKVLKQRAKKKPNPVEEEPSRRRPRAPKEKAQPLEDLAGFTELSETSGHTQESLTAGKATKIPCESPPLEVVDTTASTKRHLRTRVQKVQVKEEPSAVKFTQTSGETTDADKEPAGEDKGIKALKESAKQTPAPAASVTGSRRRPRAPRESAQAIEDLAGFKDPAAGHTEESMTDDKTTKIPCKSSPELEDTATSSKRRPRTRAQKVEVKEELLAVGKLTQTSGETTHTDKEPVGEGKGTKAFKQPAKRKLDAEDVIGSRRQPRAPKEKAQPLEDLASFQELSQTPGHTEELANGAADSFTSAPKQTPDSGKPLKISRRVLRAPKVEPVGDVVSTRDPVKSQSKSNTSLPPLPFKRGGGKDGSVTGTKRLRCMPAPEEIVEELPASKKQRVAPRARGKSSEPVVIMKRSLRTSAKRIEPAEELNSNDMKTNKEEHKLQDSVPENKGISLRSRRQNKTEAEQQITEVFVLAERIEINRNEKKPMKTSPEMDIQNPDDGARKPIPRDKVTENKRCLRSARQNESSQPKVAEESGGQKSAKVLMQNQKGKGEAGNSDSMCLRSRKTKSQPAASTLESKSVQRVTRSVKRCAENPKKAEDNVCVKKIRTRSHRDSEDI
UniProt O95347: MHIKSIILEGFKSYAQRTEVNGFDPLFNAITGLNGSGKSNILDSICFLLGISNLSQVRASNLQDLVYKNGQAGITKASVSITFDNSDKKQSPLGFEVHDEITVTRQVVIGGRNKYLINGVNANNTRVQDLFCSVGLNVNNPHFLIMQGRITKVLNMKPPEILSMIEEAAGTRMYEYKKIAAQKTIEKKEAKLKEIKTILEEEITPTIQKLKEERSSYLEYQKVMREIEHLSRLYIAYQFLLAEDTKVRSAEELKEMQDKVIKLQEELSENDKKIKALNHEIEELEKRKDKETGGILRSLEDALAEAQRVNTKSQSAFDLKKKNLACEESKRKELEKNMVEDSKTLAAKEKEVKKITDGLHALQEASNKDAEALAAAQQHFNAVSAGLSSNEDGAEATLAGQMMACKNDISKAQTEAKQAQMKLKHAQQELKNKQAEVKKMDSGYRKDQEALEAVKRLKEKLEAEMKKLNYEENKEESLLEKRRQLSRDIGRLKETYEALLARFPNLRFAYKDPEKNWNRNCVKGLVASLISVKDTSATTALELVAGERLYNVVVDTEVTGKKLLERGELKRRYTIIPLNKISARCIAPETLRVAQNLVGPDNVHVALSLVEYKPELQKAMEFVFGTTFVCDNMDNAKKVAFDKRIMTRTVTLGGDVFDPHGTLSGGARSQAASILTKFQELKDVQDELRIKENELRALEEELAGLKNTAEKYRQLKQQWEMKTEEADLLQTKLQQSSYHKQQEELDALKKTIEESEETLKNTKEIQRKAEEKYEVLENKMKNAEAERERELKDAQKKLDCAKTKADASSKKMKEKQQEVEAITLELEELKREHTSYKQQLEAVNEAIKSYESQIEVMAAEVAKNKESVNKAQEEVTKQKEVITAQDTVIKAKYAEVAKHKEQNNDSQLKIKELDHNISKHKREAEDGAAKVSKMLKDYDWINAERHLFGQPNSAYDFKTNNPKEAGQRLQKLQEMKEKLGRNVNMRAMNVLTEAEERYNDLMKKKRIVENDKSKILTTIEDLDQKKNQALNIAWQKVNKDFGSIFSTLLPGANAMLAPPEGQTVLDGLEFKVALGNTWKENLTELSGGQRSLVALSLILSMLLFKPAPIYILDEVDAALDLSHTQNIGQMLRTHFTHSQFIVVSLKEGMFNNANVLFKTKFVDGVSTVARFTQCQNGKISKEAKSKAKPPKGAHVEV

Biological target: Aurora Kinase A (AURKA), endogenous (human (endogenous in HeLa)) (UniProt O14965)
Experiment: affinity purification with mass spectrometry; anti-AURKA immunoprecipitation from chromosome-binding proteins of M-phase HeLa cells treated with Act D, BMH-21 or CX5461; mass spectrometry

| binding | Substance |
| --- | --- |
| binds | Ki-67, endogenous (from UniProt P46013 1-3256) |
| binds | SMC2, endogenous (from UniProt O95347 1-1197) |
